Some results were stated once for a whole list of compounds, not compound by compound.
Tested on: diamondback moth (Plutella xylostella (L.))
Assay: Test A: control of diamondback moth, foliar spray on mustard plant
Format: in vivo
Conditions: neonate larvae, assessed after 6 days, very good to excellent control

Compound	control efficacy: feeding damage (40% or less feeding damage and/or 100% mortality) (sprayed at 50 ppm) [%]	control efficacy: feeding damage (40% or less feeding damage and/or 100% mortality) (sprayed at 250 ppm) [%]
O=C(Cn1cnc(Br)n1)c1c([O-])n2ccccc2[n+]1Cc1cnc(Cl)s1 [Compound 139]	≤ 40	≤ 40
Cc1cccc(C(=O)c2c([O-])n3ccccc3[n+]2Cc2cnc(Cl)s2)c1 [Compound 22]	≤ 40	≤ 40
COCCOc1ccc(C(=O)c2c([O-])n3ccccc3[n+]2Cc2cnc(Cl)s2)cc1 [Compound 70]	≤ 40	≤ 40
O=C(c1c(F)cccc1Cl)c1c([O-])n2ccccc2[n+]1Cc1cnc(Cl)s1 [Compound 75]	≤ 40	≤ 40
O=C(c1c([O-])n2ccccc2[n+]1Cc1cnc(Cl)s1)C(F)(F)c1ccccc1 [Compound 12]	≤ 40	≤ 40
O=C(Oc1ccccc1)c1c([O-])n2ccccc2[n+]1Cc1cnc(Cl)s1 [Compound 31]	–	≤ 40
CCCCOc1cc(OC)cc(C(=O)c2c([O-])n3ccccc3[n+]2Cc2cnc(Cl)s2)c1 [Compound 152]	–	≤ 40
O=C(c1cccc(OCc2ccc(Cl)nc2)c1)c1c([O-])n2ccccc2[n+]1Cc1cnc(Cl)s1 [Compound 73]	≤ 40	≤ 40
CCOC(=O)c1c([O-])n2ccccc2[n+]1Cc1cnc(Cl)s1 [Compound 98]	–	≤ 40
COC(=O)c1c([O-])n2ccccc2[n+]1Cc1cnc(Cl)s1 [Compound 113]	≤ 40	≤ 40
O=C(c1cccc(Oc2ccccc2)c1)c1c([O-])n2ccccc2[n+]1Cc1cnc(Cl)s1 [Compound 52]	≤ 40	≤ 40
COC(=O)C(=O)c1c([O-])n2ccccc2[n+]1Cc1cnc(Cl)s1 [Compound 110]	–	≤ 40
O=C(c1cccc2c1OC(F)(F)O2)c1c([O-])n2ccccc2[n+]1Cc1cnc(Cl)s1 [Compound 115]	–	≤ 40
O=C(c1cccc(Oc2ccnc(C(F)(F)F)c2)c1)c1c([O-])n2ccccc2[n+]1Cc1cnc(Cl)s1 [Compound 59]	≤ 40	≤ 40
O=C(c1cscn1)c1c([O-])n2ccccc2[n+]1Cc1cnc(Cl)s1 [Compound 109]	–	≤ 40
O=C(Cn1ccc(C(F)(F)F)n1)c1c([O-])n2ccccc2[n+]1Cc1cnc(Cl)s1 [Compound 85]	–	≤ 40
O=C(c1cccc2c1CCCC2)c1c([O-])n2ccccc2[n+]1Cc1cnc(Cl)s1 [Compound 129]	≤ 40	≤ 40
O=C(c1ccc2ncccc2c1)c1c([O-])n2ccccc2[n+]1Cc1cnc(Cl)s1 [Compound 102]	≤ 40	≤ 40
O=C(Cc1ccccc1)c1c([O-])n2ccccc2[n+]1Cc1cnc(Cl)s1 [Compound 10]	≤ 40	≤ 40
O=C(c1ccc(Cl)c(Cl)c1)c1c([O-])n2ccccc2[n+]1Cc1cnc(Cl)s1 [Compound 20]	≤ 40	≤ 40

— patent US11044910B2, “Mesoionic insecticides” (priority 2017, dated 2021)
